# Test results taken from patent US20200340060A1, “COMPOSITIONS AND METHODS FOR IDENTIFYING AND TREATING LIVER DISEASES AND MONITORING TREATMENT OUTCOMES” (Gilead Sciences, Inc., priority 2017, published 2020).
# How the values were obtained:
# [1] = ELISA assays of circulating NASH secretome candidates, AUROC analysis; set-up: species or system human; details: clinical endpoint MRIPDFF
# [2] = SOMAscan serum proteomics in NASH subjects treated with selonsertib/simtuzumab, baseline and week 24; set-up: species or system human; details: serum protein marker level, week 24 vs baseline; for Median percent CHG at W24 in improver: CRN fibrosis stage improvers; for Median percent CHG at W24 in Non-improver: CRN fibrosis stage non-improvers
molecule,measurement,setting,value
"EMILIN1 (protein, UniProt Q9Y6C2 22-1016, looked up) EMILIN-1: ASYPPRGFSLYTGSSGALSPGGPQAQIAPRPASRHRNWCAYVVTRTVSCVLEDGVETYVKYQPCAWGQPQCPQSIMYRRFLRPRYRVAYKTVTDMEWRCCQGYGGDDCAESPAPALGPASSTPRPLARPARPNLSGSSAGSPLSGLGGEGPGESEKVQQLEEQVQSLTKELQGLRGVLQGLSGRLAEDVQRAVETAFNGRQQPADAAARPGVHETLNEIQHQLQLLDTRVSTHDQELGHLNNHHGGSSSSGGSRAPAPASAPPGPSEELLRQLEQRLQESCSVCLAGLDGFRRQQQEDRERLRAMEKLLASVEERQRHLAGLAVGRRPPQECCSPELGRRLAELERRLDVVAGSVTVLSGRRGTELGGAAGQGGHPPGYTSLASRLSRLEDRFNSTLGPSEEQEESWPGAPGGLSHWLPAARGRLEQLGGLLANVSGELGGRLDLLEEQVAGAMQACGQLCSGAPGEQDSQVSEILSALERRVLDSEGQLRLVGSGLHTVEAAGEARQATLEGLQEVVGRLQDRVDAQDETAAEFTLRLNLTAARLGQLEGLLQAHGDEGCGACGGVQEELGRLRDGVERCSCPLLPPRGPGAGPGVGGPSRGPLDGFSVFGGSSGSALQALQGELSEVILSFSSLNDSLNELQTTVEGQGADLADLGATKDRIISEINRLQQEATEHATESEERFRGLEEGQAQAGQCPSLEGRLGRLEGVCERLDTVAGGLQGLREGLSRHVAGLWAGLRETNTTSQMQAALLEKLVGGQAGLGRRLGALNSSLQLLEDRLHQLSLKDLTGPAGEAGPPGPPGLQGPPGPAGPPGSPGKDGQEGPIGPPGPQGEQGVEGAPAAPVPQVAFSAALSLPRSEPGTVPFDRVLLNDGGYYDPETGVFTAPLAGRYLLSAVLTGHRHEKVEAVLSRSNQGVARVDSGGYEPEGLENKPVAESQPSPGTLGVFSLILPLQAGDTVCVDLVMGQLAHSEEPLTIFSGALLYGDPELEHA",Median percent CHG at W24 in Non-improver,[1],−2.8%
same,Median percent CHG at W24 in improver,[1],−16.6%
"CLC7A (protein, UniProt Q9BXN2 1-247, looked up) C-type lectin domain family 7 …: MEYHPDLENLDEDGYTQLHFDSQSNTRIAVVSEKGSCAASPPWRLIAVILGILCLVILVIAVVLGTMAIWRSNSGSNTLENGYFLSRNKENHSQPTQSSLEDSVTPTKAVKTTGVLSSPCPPNWIIYEKSCYLFSMSLNSWDGSKRQCWQLGSNLLKIDSSNELGFIVKQVSSQPDNSFWIGLSRPQTEVPWLWEDGSTFSSNLFQIRTTATQENPSPNCVWIHVSVIYDQLCSVPSYSICEKKFSM",Median percent CHG at W24 in improver,[2],3.23%
same,Median percent CHG at W24 in Non-improver,[2],−3.19%
"MICA (protein, UniProt Q29983 24-383, looked up) MHC class I …: EPHSLRYNLTVLSWDGSVQSGFLTEVHLDGQPFLRCDRQKCRAKPQGQWAEDVLGNKTWDRETRDLTGNGKDLRMTLAHIKDQKEGLHSLQEIRVCEIHEDNSTRSSQHFYYDGELFLSQNLETKEWTMPQSSRAQTLAMNVRNFLKEDAMKTKTHYHAMHADCLQELRRYLKSGVVLRRTVPPMVNVTRSEASEGNITVTCRASGFYPWNITLSWRQDGVSLSHDTQQWGDVLPDGNGTYQTWVATRICQGEEQRFTCYMEHSGNHSTHPVPSGKVLVLQSHWQTFHVSAVAAAAIFVIIIFYVRCCKKKTSAAEGPELVSLQVLDQHPVGTSDHRDATQLGFQPLMSDLGSTGSTEGA",Median percent CHG at W24 in improver,[2],−5.58%
same,Median percent CHG at W24 in Non-improver,[2],1.73%
"SLAF5 (protein, UniProt Q9UIB8 22-345, looked up) SLAM family member 5: KDSEIFTVNGILGESVTFPVNIQEPRQVKIIAWTSKTSVAYVTPGDSETAPVVTVTHRNYYERIHALGPNYNLVISDLRMEDAGDYKADINTQADPYTTTKRYNLQIYRRLGKPKITQSLMASVNSTCNVTLTCSVEKEEKNVTYNWSPLGEEGNVLQIFQTPEDQELTYTCTAQNPVSNNSDSISARQLCADIAMGFRTHHTGLLSVLAMFFLLVLILSSVFLFRLFKRRQGRIFPEGSCLNTFTKNPYAASKKTIYTYIMASRNTQPAESRIYDEILQSKVLPSKEEPVNTVYSEVQFADKMGKASTQDSKPPGTSSYEIVI",Median percent CHG at W24 in improver,[2],−0.59%
same,Median percent CHG at W24 in Non-improver,[2],−4.04%
"IL-17D (protein, UniProt Q8TAD2 16-202, looked up) Interleukin-17D: AGAPRAGRRPARPRGCADRPEELLEQLYGRLAAGVLSAFHHTLQLGPREQARNASCPAGGRPADRRFRPPTNLRSVSPWAYRISYDPARYPRYLPEAYCLCRGCLTGLFGEEDVRFRSAPVYMPTVVLRRTPACAGGRSVYTEAYVTIPVGCTCVPEPEKDADSINSSIDKQGAKLLLGPNDAPAGP",Median percent CHG at W24 in improver,[2],−1.33%
same,Median percent CHG at W24 in Non-improver,[2],0.85%
